Literature values, collected in patent US20120183493A1, “NOVEL POLYMERS” (PharmaPatents Global Ltd., priority 2009, published 2012).
At least one structure is not confirmed: it was looked up by name or label, or the drawing left a doubt.

System: guinea pig gingival fibroblast cells
Settings: cited from earlier work

In the case of `COC(=O)C1=C(C)NC(C)=C(C(=O)OC)C1c1ccccc1[N+](=O)[O-]` [nifedipine], the “proliferation of gingival fibroblast cells” value is given as “induced proliferation”.
